These are yes or no findings as the source states them, for the method shown. In cells and extracts the contact can be indirect. Some results given as binding are weak or reduced against the parent protein; the word gives no strength. For part of these data: Where a sequence is shown, tags or fusion partners need not be part of it.
What was measured:
[1] = molecular target: T1, GFP-Gemin2 wt (human), O14893; assay: co-IP; GFP immunopurification: S100 extracts of doxycycline-induced (0.1 µg/mL, 24 h) Flp-In T-REx 293 cells on GFP-Trap beads, at least 2 h at 4 °C, washed 3 times with DPBS; Western blot; details: remark: other sources report otherwise
T1 chain: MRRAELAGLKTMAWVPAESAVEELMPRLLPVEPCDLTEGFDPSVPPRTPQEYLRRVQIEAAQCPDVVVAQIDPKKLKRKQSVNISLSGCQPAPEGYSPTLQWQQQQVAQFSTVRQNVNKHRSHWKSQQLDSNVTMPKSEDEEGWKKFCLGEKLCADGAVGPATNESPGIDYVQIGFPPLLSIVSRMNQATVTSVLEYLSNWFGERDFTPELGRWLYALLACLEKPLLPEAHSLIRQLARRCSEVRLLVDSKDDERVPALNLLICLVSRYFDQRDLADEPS

[2] = molecular target: GFP-SMN wt (human), Q16637; assay: as above; details: remark: other sources report otherwise

| Binder | binding [1] | binding [2] |
| --- | --- | --- |
| Gemin2 (endogenous), O14893 1-280 (protein) MRRAELAGLKTMAWVPAESAVEELMPRLLPVEPCDLTEGFDPSVPPRTPQEYLRRVQIEAAQCPDVVVAQIDPKKLKRKQSVNISLSGCQPAPEGYSPTLQWQQQQVAQFSTVRQNVNKHRSHWKSQQLDSNVTMPKSEDEEGWKKFCLGEKLCADGAVGPATNESPGIDYVQIGFPPLLSIVSRMNQATVTSVLEYLSNWFGERDFTPELGRWLYALLACLEKPLLPEAHSLIRQLARRCSEVRLLVDSKDDERVPALNLLICLVSRYFDQRDLADEPS | binds |  |
| Gemin4 (endogenous), P57678 1-1058 (protein) MDLGPLNICEEMTILHGGFLLAEQLFHPKALAELTKSDWERVGRPIVEALREISSAAAHSQPFAWKKKALIIIWAKVLQPHPVTPSDTETRWQEDLFFSVGNMIPTINHTILFELLKSLEASGLFIQLLMALPTTICHAELERFLEHVTVDTSAEDVAFFLDVWWEVMKHKGHPQDPLLSQFSAMAHKYLPALDEFPHPPKRLRSDPDACPTMPLLAMLLRGLTQIQSRILGPGRKCCALANLADMLTVFALTEDDPQEVSATVYLDKLATVISVWNSDTQNPYHQQALAEKVKEAERDVSLTSLAKLPSETIFVGCEFLHHLLREWGEELQAVLRSSQGTSYDSYRLCDSLTSFSQNATLYLNRTSLSKEDRQVVSELAECVRDFLRKTSTVLKNRALEDITASIAMAVIQQKMDRHMEVCYIFASEKKWAFSDEWVACLGSNRALFRQPDLVLRLLETVIDVSTADRAIPESQIRQVIHLILECYADLSLPGKNKVLAGILRSWGRKGLSEKLLAYVEGFQEDLNTTFNQLTQSASEQGLAKAVASVARLVIVHPEVTVKKMCSLAVVNLGTHKFLAQILTAFPALRFVEEQGPNSSATFMVSCLKETVWMKFSTPKEEKQFLELLNCLMSPVKPQGIPVAALLEPDEVLKEFVLPFLRLDVEEVDLSLRIFIQTLEANACREEYWLQTCSPFPLLFSLCQLLDRFSKYWQLPKEKRCLSLDRKDLAIHILELLCEIVSANAETFSPDVWIKSLSWLHRKLEQLDWTVGLRLKSFFEGHFKCEVPATLFEICKLSEDEWTSQAHPGYGAGTGLLAWMECCCVSSGISERMLSLLVVDVGNPEEVRLFSKGFLVALVQVMPWCSPQEWQRLHQLTRRLLEKQLLHVPYSLEYIQFVPLLNLKPFAQELQLSVLFLRTFQFLCSHSCRDWLPLEGWNHVVKLLCGSLTRLLDSVRAIQAAGPWVQGPEQDLTQEALFVYTQVFCHALHIMAMLHPEVCEPLYVLALETLTCYETLSKTNPSVSSLLQRAHEQRFLKSIAEGIGPEERRQTLLQKMSSF | binds | binds |

Source: PMC10649565
